From patent publication US20080160163A1, “Reduction of Digestibility of Phosphorus” (BAYER HEALTHCARE AG, priority 2005, published 2008)

Test system: adult healthy domestic cats
Details: even at 4 g per 150 g of the feed
Description: Fifteen adult healthy domestic cats of both genders were individually fed with commercially available regular canned diet (Premium Pate rich in lamb, IAMS Pet Food GmbH & Co containing 0.26% of phosphorus corresponding to 1.13% phosphorus in the dry matter). The aim of the study was to assess the palatability and safety of lanthanum carbonate octahydrate especially in high doses. Therefore 10 cats were fed lanthanum carbonate octahydrate in their daily feed ration at increasing doses. The study began with a dose level of about 12-15 g per kg of feed (dry matter). The dose was doubled every two weeks up to a dose level of about 96-120 g per kg of feed (dry matter). Five cats were given the feed without any lanthanum carbonate octahydrate and served as controls.
Palatability was assessed daily by observing the general acceptance of the feed. Tolerability and safety were assessed by measuring the blood serum phosphate levels and body weight at regular intervals as well as by daily observations concerning the health status and the possible occurrence of adverse events.

O.O.O.O.O.O.O.O.O=C([O-])[O-].O=C([O-])[O-].O=C([O-])[O-].[La+3].[La+3] [lanthanum carbonate octahydrate]
acceptance of the diet: 100%
